Assay results taken from article PMC3427372, “Proteomic Analysis Reveals New Cardiac-Specific Dystrophin-Associated Proteins” (PLoS ONE, 2012).
Read-outs that look alike come from different tables or passages of the source. No constants are given. Whether binding was seen depends on the method and setting. Binding seen in cells or lysates may run through a third protein. Some binding calls cover weakened binding; strength is not graded here.

Amino acid sequences for entries named in this document (tags omitted).
UniProt P11531: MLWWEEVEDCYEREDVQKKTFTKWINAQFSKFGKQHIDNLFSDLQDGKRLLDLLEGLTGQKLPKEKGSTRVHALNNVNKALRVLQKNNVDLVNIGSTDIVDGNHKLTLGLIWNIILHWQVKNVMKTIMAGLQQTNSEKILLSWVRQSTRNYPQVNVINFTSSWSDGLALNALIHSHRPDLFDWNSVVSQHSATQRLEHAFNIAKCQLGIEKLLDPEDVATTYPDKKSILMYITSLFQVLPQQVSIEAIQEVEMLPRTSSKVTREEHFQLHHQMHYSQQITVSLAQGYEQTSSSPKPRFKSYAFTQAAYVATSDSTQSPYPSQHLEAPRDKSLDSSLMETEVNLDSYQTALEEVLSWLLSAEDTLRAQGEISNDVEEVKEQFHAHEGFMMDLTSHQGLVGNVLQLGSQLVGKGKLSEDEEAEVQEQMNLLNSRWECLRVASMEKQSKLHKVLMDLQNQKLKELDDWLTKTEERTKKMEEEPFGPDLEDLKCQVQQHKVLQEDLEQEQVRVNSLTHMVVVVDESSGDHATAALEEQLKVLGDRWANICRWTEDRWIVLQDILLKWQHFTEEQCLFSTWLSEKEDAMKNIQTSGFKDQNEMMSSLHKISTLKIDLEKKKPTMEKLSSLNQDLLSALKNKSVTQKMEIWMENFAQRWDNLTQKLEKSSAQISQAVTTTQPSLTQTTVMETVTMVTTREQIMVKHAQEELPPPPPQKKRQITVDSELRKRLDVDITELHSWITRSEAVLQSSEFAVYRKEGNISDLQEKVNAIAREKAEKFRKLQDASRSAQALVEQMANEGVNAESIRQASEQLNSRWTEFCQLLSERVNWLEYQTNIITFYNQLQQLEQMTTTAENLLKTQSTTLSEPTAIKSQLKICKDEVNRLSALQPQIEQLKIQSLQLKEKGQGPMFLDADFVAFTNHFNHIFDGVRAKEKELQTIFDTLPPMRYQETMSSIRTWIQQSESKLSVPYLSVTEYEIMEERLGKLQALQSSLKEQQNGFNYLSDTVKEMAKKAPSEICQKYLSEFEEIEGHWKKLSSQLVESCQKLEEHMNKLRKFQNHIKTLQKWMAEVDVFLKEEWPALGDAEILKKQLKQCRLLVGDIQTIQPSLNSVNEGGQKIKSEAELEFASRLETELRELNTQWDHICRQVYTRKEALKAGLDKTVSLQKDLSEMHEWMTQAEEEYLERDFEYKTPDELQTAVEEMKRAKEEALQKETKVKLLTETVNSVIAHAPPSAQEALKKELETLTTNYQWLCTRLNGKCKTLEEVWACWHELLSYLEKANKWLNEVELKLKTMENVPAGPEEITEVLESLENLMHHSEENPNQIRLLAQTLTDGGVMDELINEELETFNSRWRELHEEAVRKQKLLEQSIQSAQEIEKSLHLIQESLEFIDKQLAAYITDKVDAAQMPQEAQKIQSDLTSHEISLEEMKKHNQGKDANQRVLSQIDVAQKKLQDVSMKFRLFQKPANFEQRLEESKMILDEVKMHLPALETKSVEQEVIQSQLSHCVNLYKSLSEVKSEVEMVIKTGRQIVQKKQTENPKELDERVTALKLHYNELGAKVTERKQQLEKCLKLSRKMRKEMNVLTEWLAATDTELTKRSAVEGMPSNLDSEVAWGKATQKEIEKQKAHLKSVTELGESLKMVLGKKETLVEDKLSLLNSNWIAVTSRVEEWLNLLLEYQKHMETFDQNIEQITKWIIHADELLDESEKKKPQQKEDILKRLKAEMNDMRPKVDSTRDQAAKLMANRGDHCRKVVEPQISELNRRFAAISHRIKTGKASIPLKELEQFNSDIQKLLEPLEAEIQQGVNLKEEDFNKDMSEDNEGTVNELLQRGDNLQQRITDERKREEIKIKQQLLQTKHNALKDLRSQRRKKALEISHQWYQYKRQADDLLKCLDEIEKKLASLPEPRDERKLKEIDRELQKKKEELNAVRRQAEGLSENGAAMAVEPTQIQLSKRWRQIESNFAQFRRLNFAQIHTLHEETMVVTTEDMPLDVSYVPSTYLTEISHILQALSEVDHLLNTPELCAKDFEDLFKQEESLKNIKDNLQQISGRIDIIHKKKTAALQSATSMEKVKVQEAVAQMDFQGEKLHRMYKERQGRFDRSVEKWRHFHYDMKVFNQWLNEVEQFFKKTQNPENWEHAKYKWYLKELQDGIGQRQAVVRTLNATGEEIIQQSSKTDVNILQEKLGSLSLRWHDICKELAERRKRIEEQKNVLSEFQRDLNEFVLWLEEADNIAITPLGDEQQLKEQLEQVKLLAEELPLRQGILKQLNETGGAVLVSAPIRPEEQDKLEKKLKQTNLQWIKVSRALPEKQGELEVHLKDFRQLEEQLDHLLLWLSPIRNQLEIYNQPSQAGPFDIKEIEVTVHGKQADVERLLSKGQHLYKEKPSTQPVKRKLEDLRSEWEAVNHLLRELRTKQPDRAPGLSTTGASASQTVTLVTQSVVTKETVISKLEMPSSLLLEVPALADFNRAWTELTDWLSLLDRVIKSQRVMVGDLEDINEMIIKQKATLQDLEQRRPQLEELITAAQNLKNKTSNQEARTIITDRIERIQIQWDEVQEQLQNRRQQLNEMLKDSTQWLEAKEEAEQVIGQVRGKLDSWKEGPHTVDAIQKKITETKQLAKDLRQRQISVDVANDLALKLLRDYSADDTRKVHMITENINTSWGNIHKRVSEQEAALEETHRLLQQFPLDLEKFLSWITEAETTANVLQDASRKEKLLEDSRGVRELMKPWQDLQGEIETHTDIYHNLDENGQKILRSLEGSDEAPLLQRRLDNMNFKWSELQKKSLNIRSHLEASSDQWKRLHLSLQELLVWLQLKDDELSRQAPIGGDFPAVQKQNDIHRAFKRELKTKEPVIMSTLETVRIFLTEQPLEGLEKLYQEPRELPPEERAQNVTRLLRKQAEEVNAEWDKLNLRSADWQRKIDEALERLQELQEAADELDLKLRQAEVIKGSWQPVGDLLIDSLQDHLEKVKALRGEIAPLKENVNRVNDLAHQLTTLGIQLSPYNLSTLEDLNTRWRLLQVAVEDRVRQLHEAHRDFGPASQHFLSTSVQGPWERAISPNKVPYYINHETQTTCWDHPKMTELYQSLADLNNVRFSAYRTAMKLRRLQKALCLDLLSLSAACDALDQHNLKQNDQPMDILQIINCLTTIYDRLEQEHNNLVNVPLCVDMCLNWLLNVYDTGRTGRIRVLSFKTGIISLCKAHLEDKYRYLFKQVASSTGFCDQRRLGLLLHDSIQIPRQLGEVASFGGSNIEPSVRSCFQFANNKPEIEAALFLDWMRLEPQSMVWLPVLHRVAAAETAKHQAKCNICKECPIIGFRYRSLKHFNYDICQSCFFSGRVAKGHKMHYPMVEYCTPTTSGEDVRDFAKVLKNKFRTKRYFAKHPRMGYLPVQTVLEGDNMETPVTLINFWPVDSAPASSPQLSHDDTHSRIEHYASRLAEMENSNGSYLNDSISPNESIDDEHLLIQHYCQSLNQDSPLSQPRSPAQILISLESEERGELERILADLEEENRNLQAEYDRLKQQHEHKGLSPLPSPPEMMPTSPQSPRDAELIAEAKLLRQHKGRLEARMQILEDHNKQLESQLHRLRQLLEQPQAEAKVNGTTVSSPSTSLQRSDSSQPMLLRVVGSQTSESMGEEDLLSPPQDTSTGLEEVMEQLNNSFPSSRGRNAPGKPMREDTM

Experiments:
[1] = molecular target: T1, β-dystroglycan (mouse (endogenous in cardiac and skeletal muscle)) (UniProt Q62165); assay: co-IP; MANDAG2 (anti-β-dystroglycan) IP from wild type mouse heart lysate, Western blot
T1 sequence: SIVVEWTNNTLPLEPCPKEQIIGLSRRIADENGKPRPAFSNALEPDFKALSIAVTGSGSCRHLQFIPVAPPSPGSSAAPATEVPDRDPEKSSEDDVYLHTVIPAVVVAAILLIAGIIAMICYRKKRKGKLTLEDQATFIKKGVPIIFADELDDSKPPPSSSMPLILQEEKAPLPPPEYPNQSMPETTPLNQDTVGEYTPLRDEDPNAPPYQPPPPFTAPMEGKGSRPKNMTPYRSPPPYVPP

[2] = molecular target: Dystrophin (human heart) (human (endogenous in cardiac biopsy)) (UniProt P11532); assay: co-IP; DYS-IP (MANDYS1 cross-linked to protein G magnetic beads) from human cardiac biopsy (ventricular tissue) lysate, Western blot
[3] = molecular target: Dystrophin (mouse (endogenous in cardiac and skeletal muscle)) (UniProt P11531); assay: co-IP; DYS-IP (MANDYS1) and control IgG-IP, Western blot for α- and β-dystroglycan (Figure 1C); the tissue is not named in the legend
[4] = molecular target: Dystrophin (mouse (endogenous in cardiac and skeletal muscle)) (UniProt P11531); assay: co-IP; DYS-IP (MANDYS1 cross-linked to protein G magnetic beads) from wild type mouse skeletal muscle (quadriceps) lysate, 3 hr at 4°C, Western blot; controls IgG-IP and mdx muscle
[5] = molecular target: Dystrophin (mouse (endogenous in cardiac and skeletal muscle)) (UniProt P11531); assay: co-IP; DYS-IP (MANDYS1 cross-linked to protein G magnetic beads) from wild type mouse cardiac muscle lysate, 3 hr at 4°C, Western blot; controls IgG-IP and mdx
[6] = molecular target: Dystrophin (human heart) (human (endogenous in cardiac biopsy)) (UniProt P11532); assay: co-IP; DYS-IP (MANDYS1 cross-linked to protein G magnetic beads) from human cardiac biopsy (ventricular tissue) lysate, Western blot; remark: listed apart in the source

Molecule: Dystrophin (from UniProt P11531 1-3678)
- binding [1]: binds

Molecule: Ahnak1 (human heart) (from UniProt Q09666 1-5890)
- binding [2]: binds

B1: α-dystroglycan (protein, UniProt Q62165 28-651)
chain: HWPSEPSEAVRDWKNQLEASMHSVLSDFQEAVPTVVGIPDGTAVVGRSFRVSIPTDLIASSGEIIKVSAAGKEALPSWLHWDPHSHILEGLPLDTDKGVHYISVSAARLGANGSHVPQTSSVFSIEVYPEDHNEPQSVRAASSDPGEVVPSACAADEPVTVLTVILDADLTKMTPKQRIDLLNRMQSFSEVELHNMKLVPVVNNRLFDMSAFMAGPGNAKKVVENGALLSWKLGCSLNQNSVPDIRGVETPAREGAMSAQLGYPVVGWHIANKKPTLPKRLRRQIHATPTPVTAIGPPTTAIQEPPSRIVPTPTSPAIAPPTETMAPPVRDPVPGKPTVTIRTRGAIIQTPTLGPIQPTRVSEAGTTVPGQIRPTLTIPGYVEPTAVITPPTTTTKKPRVSTPKPATPSTDSSTTTTRRPTKKPRTPRPVPRVTTKAPITRLETASPPTRIRTTTSGVPRGGEPNQRPELKNHIDRVDAWVGTYFEVKIPSDTFYDNEDTTTDKLKLTLKLREQQLVGEKSWVQFNSNSQLMYGLPDSSHVGKHEYFMHATDKGGLSAVDAFEIHVHKRPQGDKAPARFKARLAGDPAPVVNDIHKKIALVKKLAFAFGDRNCSSITLQNITRG
- binding [3]: binds

B2: β-dystroglycan (protein, UniProt Q62165 652-893)
chain: T1 sequence
- binding [3]: binds
- binding [4]: binds

B3: α1-Syntrophin (protein, UniProt Q61234 1-503)
chain: MASGRRAPRTGLLELRCGAGSGAGGERWQRVLLSLAEDALTVSPADGEPGPEPEPAQLNGAAEPGAAPPQLPEALLLQRRRVTVRKADAGGLGISIKGGRENKMPILISKIFKGLAADQTEALFVGDAILSVNGEDLSSATHDEAVQALKKTGKEVVLEVKYMKEVSPYFKNSAGGTSVGWDSPPASPLQRQPSSPGPQPRNLSEAKHVSLKMAYVSRRCTPTDPEPRYLEICAADGQDAVFLRAKDEASARSWAGAIQAQIGTFIPWVKDELQALLTATGTAGSQDIKQIGWLTEQLPSGGTAPTLALLTEKELLFYCSLPQSREALSRPTRTAPLIATSSAHRLVHSGPSKGSVPYDAELSFALRTGTRHGVDTHLFSVESPQELAAWTRQLVDGCHRAAEGIQEVSTACTWNGRPCSLSVHIDKGFTLWAAEPGAARAMLLRQPFEKLQMSSDDGTSLLFLDFGGAEGEIQLDLHSCPKTMVFIIHSFLSAKVTRLGLLA
- binding [4]: binds
- binding [5]: binds

B4: β1-Syntrophin (natural protein, UniProt Q99L88 1-537, looked up)
chain: MAVAAAAVAAPAGGGGARAQRSGLLEVLVRDRWHKVLVNLSEDALVLSCEEGAAAYNGIGAATNGSFCRGSGTGHPVPGVAQAPDSPAGVRTAFTDLPEQVPESISNQKRGVKVLKQELGGLGISIKGGKENKMPILISKIFKGLAADQTQALYVGDAILSVNGADLRDATHDEAVQALKRAGKEVLLEVKYMREATPYVKKGSPVSEIGWETPPPESPRLGGGSAEPLSSQSFSFHRDRKSIPLKMCYVTRNMTLADPENRQLEIHSPDAKHTVILRSKDSATAQAWFSAIHSNAGDLLTRVVADIREQLGKTGIAGSREIRHLGWLAEKVPGESEKQWKPALVVLTEKDLLIYDSMPRRKEAWFSPVHSYPLLATRLVHSGPGKGSPQAGMDLSFATRTGTKQGIETHLFRAEISRDLSHWTRSIVQGCHNSAELTAEITTACTYRNQECRLTIHYDNGFSISTEPQDGAFPKTIIQSPYEKLKMSSDDGIRMLYLDFGGKEGEIQLDLHSCPKPIVFIIHSFLSAKITRLGLVA
notes: β1-syntrophin, mouse; source: endogenous, mouse cardiac ventricle and skeletal muscle (quadriceps) lysate
- binding [4]: binds

B5: α1-dystrobrevin (natural protein, UniProt Q9D2N4 1-746, looked up)
chain: MIEDSGKRGNTMAERRQLFAEMRAQDLDRIRLSTYRTACKLRFVQKKCNLHLVDIWNVIEALRENALNNLDPNIELNVARLEAVLSTIFYQLNKRMPTTHQIHVEQSISLLLNFLLAAFDPEGHGKISVFAVKMALATLCGGKIMDKLRYIFSMISDSSGVMVYGRYDQFLREVLKLPTAVFEGPSFGYTEQSARSCFSQQKKVTLNGFLDTLMSDPPPQCLVWLPLLHRLANVENVFHPVECSYCHSESMMGFRYRCQQCHNYQLCQDCFWRGHAGGSHSNQHQMKEYTSWKSPAKKLTNALSKSLSCASSREPLHPMFPDQPEKPLNLAHIVPPRPVTSMNDTLFSHSVPSSGSPFITRSSPPKDSEVEQNKMLARAAPAFLKGRGIQYSLNVADRLADEHVLIGLYVNMLRNDPPCMLESSNRLDEEHRLIARYAARLAAESSSSQPTQQRSAPDISFTIDANKQQRQLIAELENKNREILQEIQRLRVEHEQASQPTPEKAQQNPTLLAELRLLRQRKDELEQRMSALQESRRELMVQLEGLMKLLKEEELKQGTQGASSPRSSPSHTISRPIPMPIRSASACPTPTHTPQDSLTGVGGDVQEAFAQSSRRNLRSDLLVAADSITNTMSSLVKELNSEVASETESTVDSEFSRPQFEDLAPSPTSEKAFLAQIHSRKPGYIHGGAASTTHGDMVPEDGDPYTQPEDGNYENESVRQLENELQLEEYLKQKLQDEAYQVSLQG
notes: α-dystrobrevin splice variant α1, mouse; told apart on blots by molecular weight with a pan α-dystrobrevin antibody; also called DTNA1; source: endogenous, mouse cardiac ventricle and skeletal muscle (quadriceps) lysate
- binding [4]: binds

B6: β2-syntrophin (human heart) (protein, UniProt Q13425 1-540)
chain: MRVAAATAAAGAGPAMAVWTRATKAGLVELLLRERWVRVVAELSGESLSLTGDAAAAELEPALGPAAAAFNGLPNGGGAGDSLPGSPSRGLGPPSPPAPPRGPAGEAGASPPVRRVRVVKQEAGGLGISIKGGRENRMPILISKIFPGLAADQSRALRLGDAILSVNGTDLRQATHDQAVQALKRAGKEVLLEVKFIREVTPYIKKPSLVSDLPWEGAAPQSPSFSGSEDSGSPKHQNSTKDRKIIPLKMCFAARNLSMPDLENRLIELHSPDSRNTLILRCKDTATAHSWFVAIHTNIMALLPQVLAELNAMLGATSTAGGSKEVKHIAWLAEQAKLDGGRQQWRPVLMAVTEKDLLLYDCMPWTRDAWASPCHSYPLVATRLVHSGSGCRSPSLGSDLTFATRTGSRQGIEMHLFRVETHRDLSSWTRILVQGCHAAAELIKEVSLGCMLNGQEVRLTIHYENGFTISRENGGSSSILYRYPFERLKMSADDGIRNLYLDFGGPEGELTMDLHSCPKPIVFVLHTFLSAKVTRMGLLV
- binding [6]: binds

B7: α1-dystrobrevin (human heart) (protein, UniProt Q9Y4J8 1-743)
chain: MIEDSGKRGNTMAERRQLFAEMRAQDLDRIRLSTYRTACKLRFVQKKCNLHLVDIWNVIEALRENALNNLDPNTELNVSRLEAVLSTIFYQLNKRMPTTHQIHVEQSISLLLNFLLAAFDPEGHGKISVFAVKMALATLCGGKIMDKLRYIFSMISDSSGVMVYGRYDQFLREVLKLPTAVFEGPSFGYTEQSARSCFSQQKKVTLNGFLDTLMSDPPPQCLVWLPLLHRLANVENVFHPVECSYCHSESMMGFRYRCQQCHNYQLCQDCFWRGHAGGSHSNQHQMKEYTSWKSPAKKLTNALSKSLSCASSREPLHPMFPDQPEKPLNLAHIVDTWPPRPVTSMNDTLFSHSVPSSGSPFITRSSPPKDSEVEQNKLLARAAPAFLKGKGIQYSLNVADRLADEHVLIGLYVNMLRNNPSCMLESSNRLDEEHRLIARYAARLAAESSSSQPPQQRSAPDISFTIDANKQQRQLIAELENKNREILQEIQRLRLEHEQASQPTPEKAQQNPTLLAELRLLRQRKDELEQRMSALQESRRELMVQLEGLMKLLKTQGAGSPRSSPSHTISRPIPMPIRSASACSTPTHTPQDSLTGVGGDVQEAFAQSSRRNLRNDLLVAADSITNTMSSLVKELNSEVGSETESNVDSEFARTQFEDLVPSPTSEKAFLAQIHARKPGYIHSGATTSTMRGDMVTEDADPYVQPEDENYENDSVRQLENELQMEEYLKQKLQDEAYQVSLQG
- binding [6]: binds
